This is an account of results in US20210317219A1.

Sequences of proteins named here, by UniProt entry; tags and fusion partners are left off. A change or cut given only in a name is not applied to a line headed by its entry.
UniProt P07333: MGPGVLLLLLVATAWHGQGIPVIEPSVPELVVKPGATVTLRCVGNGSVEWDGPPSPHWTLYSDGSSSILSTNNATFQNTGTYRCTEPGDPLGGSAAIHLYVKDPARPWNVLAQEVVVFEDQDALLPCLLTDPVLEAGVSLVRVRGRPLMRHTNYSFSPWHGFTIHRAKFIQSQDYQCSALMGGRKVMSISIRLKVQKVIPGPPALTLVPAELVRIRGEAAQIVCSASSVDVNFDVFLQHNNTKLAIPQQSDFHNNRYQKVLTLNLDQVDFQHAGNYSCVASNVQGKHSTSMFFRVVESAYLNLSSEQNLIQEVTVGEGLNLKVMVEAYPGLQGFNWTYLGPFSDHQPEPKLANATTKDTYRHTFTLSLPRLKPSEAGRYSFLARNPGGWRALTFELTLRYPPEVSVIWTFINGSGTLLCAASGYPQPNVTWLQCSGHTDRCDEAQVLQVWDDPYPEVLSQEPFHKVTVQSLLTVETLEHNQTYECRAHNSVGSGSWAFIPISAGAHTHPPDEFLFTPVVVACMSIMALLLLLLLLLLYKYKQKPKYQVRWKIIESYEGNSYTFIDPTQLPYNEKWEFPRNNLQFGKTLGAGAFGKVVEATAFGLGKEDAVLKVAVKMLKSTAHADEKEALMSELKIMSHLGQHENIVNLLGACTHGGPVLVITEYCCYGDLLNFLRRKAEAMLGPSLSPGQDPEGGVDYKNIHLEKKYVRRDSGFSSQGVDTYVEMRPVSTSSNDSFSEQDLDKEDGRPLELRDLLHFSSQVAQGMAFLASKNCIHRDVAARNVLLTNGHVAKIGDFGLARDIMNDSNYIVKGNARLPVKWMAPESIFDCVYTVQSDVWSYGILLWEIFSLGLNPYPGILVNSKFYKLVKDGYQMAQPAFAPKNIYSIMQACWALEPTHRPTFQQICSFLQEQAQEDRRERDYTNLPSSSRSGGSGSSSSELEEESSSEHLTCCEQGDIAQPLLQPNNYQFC

In the assay the target is human CSF1R ECD (human) (UniProt P07333). Kind of assay: binding test on CSF1R ECD; method not described here.

No constants are given. Whether binding was seen depends on the method and setting. Some results given as binding are weak or reduced against the parent protein; the word gives no strength.

B1: huAb7 (antibody, human IgG4 S228P, kappa, V domains shown)
VH: QVQLVQSGAEVKKPGSSVKVSCKASGYTFSDFNIHWVRQAPGQGLEWMGYINPYTDVTVYNEKFKGRVTITSDKSTSTAYMELSSLRSEDTAVYYCASYFDGTFDYALDYWGQGTLVTVSS
VL: EIVLTQSPATLSLSPGERATLSCRASESVDNYGLSFMNWYQQKPGQAPRLLIYTASNLESGIPARFSGSGSGTDFTLTISSLEPEDFAVYYCQQSKELPWTFGQGTKVEIKR
As to B1, the binding entry is “binds”.

B2: huAb12 (antibody, human IgG4 S228P, kappa, V domains shown)
VH: QVQLVQSGAEVKKPGSSVKVSCKASGYTFSDFNIHWVRQAPGQGLEWIGYINPYTDVTVYNEKFKGRATLTSDKSTSTAYMELSSLRSEDTAVYYCASYFDGTFDYALDYWGQGTLVTVSS
VL: EIVVTQSPATLSLSPGERATLSCRASESVDNYGLSFMNWFQQKPGQAPRLLIYTASNLESGIPARFSGSGSRTDFTLTISSLEPEDFAVYYCQQSKELPWTFGQGTKVEIKR
As for B2, the binding entry was “binds”.

B3: huAb11 (antibody, human IgG4 S228P, kappa, V domains shown)
VH: QVQLVQSGAEVKKPGSSVKVSCKASGYTFSDFNIHWVRQAPGQGLEWIGYINPYTDVTVYNEKFKGRATLTSDKSTSTAYMELSSLRSEDTAVYYCASYFDGTFDYALDYWGQGTLVTVSS
VL: EIVLTQSPATLSLSPGERATLSCRASESVDNYGLSFMNWYQQKPGQAPRLLIYTASNLESGIPARFSGSGSRTDFTLTISSLEPEDFAVYYCQQSKELPWTFGQGTKVEIKR
Take B3: the binding entry is recorded as “binds”.

B4: huAb13 (antibody, human IgG4 S228P, kappa, V domains shown)
VH: QVQLVQSGAEVKKPGSSVKVSCKASGYIFTDYNMHWVRQAPGQGLEWMGEINPNNGVVVYNQKFKGRVTITVDKSTSTAYMELSSLRSEDTAVYYCTRALYHSNFGWYFDSWGQGTLVTVSS
VL: EIVLTQSPATLSLSPGERATLSCKASQSVDYDGDSHMNWYQQKPGQAPRLLIYTASNLESGIPARFSGSGSGTDFTLTISSLEPEDFAVYYCQQGNEDPWTFGQGTKVEIKR
With B4, the binding result was “binds”.

B5: huAb15 (antibody, human IgG4 S228P, kappa, V domains shown)
VH: QVQLVQSGAEVKKPGSSVKVSCKASGYIFTDYNMHWVRQAPGQGLEWMGEINPNNGVVVYNQKFKGTTTLTVDKSTSTAYMELSSLRSEDTAVYYCTRALYHSNFGWYFDSWGQGTLVTVSS
VL: EIVLTQSPATLSLSPGERATLSCKASQSVDYDGDSHMNWYQQKPGQAPRLLIYTASNLESGIPARFSGSGSGTDFTLTISSLEPEDFAVYYCQQGNEDPWTFGQGTKVEIKR
B5: the binding entry is “binds”.

B6: huAb9 (antibody, human IgG4 S228P, kappa, V domains shown)
VH: QVQLVQSGAEVKKPGSSVKVSCKASGYTFSDFNIHWVRQAPGQGLEWMGYINPYTDVTVYNEKFKGRVTITSDKSTSTAYMELSSLRSEDTAVYYCASYFDGTFDYALDYWGQGTLVTVSS
VL: EIVVTQSPATLSLSPGERATLSCRASESVDNYGLSFMNWFQQKPGQAPRLLIYTASNLESGIPARFSGSGSRTDFTLTISSLEPEDFAVYYCQQSKELPWTFGQGTKVEIKR
On to B6, for which the binding result is given as “binds”.

B7: huAb8 (antibody, human IgG4 S228P, kappa, V domains shown)
VH: QVQLVQSGAEVKKPGSSVKVSCKASGYTFSDFNIHWVRQAPGQGLEWMGYINPYTDVTVYNEKFKGRVTITSDKSTSTAYMELSSLRSEDTAVYYCASYFDGTFDYALDYWGQGTLVTVSS
VL: EIVLTQSPATLSLSPGERATLSCRASESVDNYGLSFMNWYQQKPGQAPRLLIYTASNLESGIPARFSGSGSRTDFTLTISSLEPEDFAVYYCQQSKELPWTFGQGTKVEIKR
As for B7, the binding result is “binds”.

B8: huAb10 (antibody, human IgG4 S228P, kappa, V domains shown)
VH: QVQLVQSGAEVKKPGSSVKVSCKASGYTFSDFNIHWVRQAPGQGLEWIGYINPYTDVTVYNEKFKGRATLTSDKSTSTAYMELSSLRSEDTAVYYCASYFDGTFDYALDYWGQGTLVTVSS
VL: EIVLTQSPATLSLSPGERATLSCRASESVDNYGLSFMNWYQQKPGQAPRLLIYTASNLESGIPARFSGSGSGTDFTLTISSLEPEDFAVYYCQQSKELPWTFGQGTKVEIKR
For the molecule B8, the binding result is on record as “binds”.

B9: huAb14 (antibody, human IgG4 S228P, kappa, V domains shown)
VH: QVQLVQSGAEVKKPGSSVKVSCKASGYIFTDYNMHWVRQAPGQGLEWMGEINPNNGVVVYNQKFKGRVTITVDKSTSTAYMELSSLRSEDTAVYYCTRALYHSNFGWYFDSWGQGTLVTVSS
VL: DIVLTQSPATLSLSPGERATLSCKASQSVDYDGDSHMNWYQQKPGQAPRLLIYTASNLESGIPARFSGSGSGADFTLTISSLEPEDFAVYYCQQGNEDPWTFGQGTKVEIKR
On to B9, for which the binding entry is “binds”.

B10: huAb16 (antibody, human IgG4 S228P, kappa, V domains shown)
VH: QVQLVQSGAEVKKPGSSVKVSCKASGYIFTDYNMHWVRQAPGQGLEWMGEINPNNGVVVYNQKFKGTTTLTVDKSTSTAYMELSSLRSEDTAVYYCTRALYHSNFGWYFDSWGQGTLVTVSS
VL: DIVLTQSPATLSLSPGERATLSCKASQSVDYDGDSHMNWYQQKPGQAPRLLIYTASNLESGIPARFSGSGSGADFTLTISSLEPEDFAVYYCQQGNEDPWTFGQGTKVEIKR
With B10, the binding result is given as “binds”.
